Measurements reported in PMC3836738.
No constants are given. Whether binding was seen depends on the method and setting. In cells and extracts the contact can be indirect. Some entries that bind do so weakly or less than the wild type.

Protein sequences, listed by entry. Tags and fused reporters are not part of them.
UniProt Q86YI8: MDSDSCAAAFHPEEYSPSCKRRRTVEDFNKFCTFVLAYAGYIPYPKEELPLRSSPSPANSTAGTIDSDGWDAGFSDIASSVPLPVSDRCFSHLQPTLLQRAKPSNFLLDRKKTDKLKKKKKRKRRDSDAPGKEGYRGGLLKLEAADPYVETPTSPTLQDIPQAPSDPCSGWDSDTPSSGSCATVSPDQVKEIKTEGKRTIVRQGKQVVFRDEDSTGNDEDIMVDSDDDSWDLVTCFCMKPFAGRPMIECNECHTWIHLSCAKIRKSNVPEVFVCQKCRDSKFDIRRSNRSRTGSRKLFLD

Assays:
[1] = molecular target: SPOC1 (survival-time associated PHD protein in ovarian cancer 1/PHF13), endogenous (human (endogenous in H1299)) (UniProt Q86YI8); test: co-IP; H1299 cells infected with H5pg4100, H5pm4149 or H5pm4154 at 50 FFU per cell; total cell extracts 24 and 48 h post infection; precipitated with rabbit polyclonal SPOC1 antibody, blot with 2A6 (E1B-55K) and B6-8 (E2A/DBP)
[2] = molecular target: SPOC1, exogenous, doxycyclin-induced in stably transfected DLD1 and U2OS cells (human) (UniProt Q86YI8); test: co-IP; DLD1 and U2OS cells with doxycyclin-induced SPOC1, infected with H5pg4100, H5pm4149 or H5pm4154 at 50 FFU per cell; total cell extracts 24 h post infection; precipitated with rabbit polyclonal SPOC1 antibody, blot with 2A6 (E1B-55K) and B6-8 (E2A/DBP)

With “Ad5 E2A-DBP expressed in virus-infected cells (from UniProt P03265 1-529)” the binding [1] was “binds” and the binding [2] was “binds”.
